# Source: PubChem BioAssay AID2685 (National Center for Advancing Translational Sciences (NCATS), 2010)
# Some of the results follow. These are further read-outs of the screen, such as a control signal, another cell line or another target. No call is given for them. Most of these compounds were active or inconclusive in the main read-out, so they are no random draw. Words in brackets tell the shape of the fitted curve; partial curves, single points and poor fits give uncertain potencies.
# Assay: qHTS Assay for Lipid Storage Modulators in Drosophila S3 Cells;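 for cell number change: cells counted by Cell Tracker Red CMTPX staining in the red channel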
# Settings: BODIPY lipid droplet fluorescence, 18-24 h; for cell number change: measured here: cell count max response, cells fed with added oleic acid
# Method in brief: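 Laser-scanning cytometry quantifies lipid droplet accumulation (500–530 nm total intensity; droplet/cell object ratio) in oleic acid-fed (400 uM added) Drosophila S3 cells treated with a concentration series. 20 uM Triacsin C defined 100% inhibition.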
# [1] = measured here: lipid fluorescence (Fed channel) AC50, cells fed with added oleic acid
# [2] = measured here: cell number channel AC50, cells fed with added oleic acid
Compound,cell number change,AC50 [1],AC50 [2]
CCOC(=O)C1CCN(C(=O)COC(=O)c2ccc3[nH]c4c(c3c2)CCCC4)CC1,-32.2%,–,–
COC(=O)c1[nH]c2ccccc2c1NC(=O)CN1CCN(Cc2ccc3c(c2)OCO3)CC1,2.14%,–,–
O=c1[nH]c(/C=C\c2ccccc2F)nc(O)c1[N+](=O)[O-],12.4%,–,–
CCCn1nnc(NC(=S)NC(=O)/C=C/c2ccc(Cl)cc2)n1,20.7%,"25.9 µM [rising, single point]",–
O=C(NCC1COCCO1)c1ccc(OC2CCN(CCc3ccccc3)CC2)cc1 (stereo not given),-23.5%,"7.31 µM [rising, partial curve]",–
CC(C)(C)[C@H]1C=C(C(=O)N2CCN(Cc3ccccc3)CC2)O[C@@H](OCCCCO)C1,5.33%,"6.51 µM [falling, single point]",–
CCCOc1ccc(/C=N/n2nnnc2N)cc1OC,-41.8%,"6.51 µM [falling, single point]","20.6 µM [falling, partial curve, poor fit]"
COc1ccc(/C(C)=N/NC(=O)c2cc(-c3cccnc3)nc3ccccc23)cc1,23.8%,"0.0259 µM [rising, full curve, poor fit]",–
Cc1cc(C(=O)CN2C(=O)NC(c3ccccc3)(c3ccccc3)C2=O)c(C)n1Cc1ccco1,-26.5%,"18.4 µM [falling, partial curve, poor fit]",–
CNCc1cc(Cl)cc(OC)c1OC(C)C,-10.6%,"4.47 µM [falling, full curve, poor fit]",–
O=C(N/N=C/c1ccc(Cl)c([N+](=O)[O-])c1)c1cnccn1,-0.0785%,"5.8 µM [falling, single point]",–
O=C(Nc1nccs1)C(c1ccccc1)N1CCCC1 (stereo not given),14.6%,"0.00517 µM [falling, full curve, poor fit]",–
CC(=O)Nc1ccc(NC(=O)N2CCCCC2)cc1,-9.92%,–,–
Cc1ccc2[nH]c(=O)c(CN(Cc3cccs3)S(=O)(=O)c3ccc4c(c3)OCCO4)cc2c1,-6.58%,"18.4 µM [rising, single point]",–
O=C1NCCN1Cc1cccc(Cl)c1,–,"6.51 µM [rising, single point]",–
CSc1ccccc1NC(=O)CN(C)C(=O)c1ccc2c(c1)OCCO2,-20.9%,"0.82 µM [falling, full curve, poor fit]",–
CC(=O)Nc1ccc(S(=O)(=O)N/N=C/c2ccc(C)s2)cc1,–,"5.8 µM [rising, single point]","0.092 µM [rising, partial curve, poor fit]"
NNC(=O)CNc1ccccc1Cl,6.92%,"0.517 µM [falling, full curve]",–
O=C(Nc1nnc(C(F)(F)F)s1)c1c(F)cccc1F,19%,"0.164 µM [falling, full curve]","3.66 µM [rising, full curve, poor fit]"
COc1ccc(CCNC(=O)CCCc2nnc3n(C)c(=O)c4sccc4n23)cc1OC,10.4%,"16.4 µM [rising, single point]",–
Cc1noc(NS(=O)(=O)c2ccc(NC(=O)C34CC5CC(C3)CC(n3cnc(Cl)n3)(C5)C4)cc2)c1C,-42.1%,–,"29.1 µM [falling, single point]"

Compound,cell number change,AC50 [1],AC50 [2]
Cc1cnc(C(=O)OC(C)C(=O)c2c(C)[nH]c3ccccc23)cn1 (stereo not given),48.7%,"2.59 µM [rising, full curve]","2.06 µM [rising, full curve]"
COC(=O)C1=C(C(=O)OC)[C@@H]2Nc3ccccc3[C@@]23C[C@@H](C(=O)OC)N(C(C)=O)C3=N1,-12.1%,–,"5.17 µM [falling, partial curve]"
CC(C)NCC(=O)NC12CC3CC(CC(C3)C1)C2,-87.5%,"20.6 µM [falling, single point]","29.1 µM [falling, single point]"
COCCCNc1oc(-c2ccccc2OC)nc1C#N,40%,–,"29.1 µM [rising, single point]"
CC1CCCCN1S(=O)(=O)c1cnc(Cl)c(Br)c1 (stereo not given),-8.57%,"29.1 µM [falling, single point]",–
CC(C)(C)c1csc(NC(=O)Cc2ccc(S(=O)(=O)N3CCOCC3)s2)n1,19.3%,"32.6 µM [falling, single point]",–
Cn1c(CN2CCOCC2)nc2cc(NC(=O)c3ccccc3Cl)ccc21,88%,"0.58 µM [falling, single point]","23.1 µM [rising, partial curve]"
CC(C)c1[nH]nc2c1C(c1cccs1)C(C#N)=C(N)O2 (stereo not given),-20.7%,"18.4 µM [falling, single point]",–
Cc1ccc(-c2nc(N)sc2C)cc1,-2.8%,–,–
Cc1ccc(NC(=O)NC2C(NC(=O)Nc3ccc(C)cc3)N(C)C(=O)N2C)cc1 (stereo not given),3.56%,"0.58 µM [rising, single point]",–
CC(C)(C)OC(=O)NNC(=O)NC12CC3CC(CC(C3)C1)C2,-53.1%,"0.116 µM [rising, full curve, poor fit]","16.4 µM [falling, single point]"
O=C(N/N=C/c1ccc([N+](=O)[O-])s1)c1ccncc1,-4.48%,–,–
CCOC(=O)N1CCC(=NNC(=O)Cn2ccc(C(F)(F)F)n2)CC1,60.4%,–,"32.6 µM [rising, single point]"
CCc1nc2ccccc2c2nc3ccccc3n12,48.4%,"0.731 µM [rising, single point]","1.84 µM [rising, single point]"
COc1ccc(OCC(=O)Nc2cc(OC)ccc2N2CCCCC2)cc1,1.71%,"3.66 µM [rising, full curve]",–
C=CC[n+]1c(/C=C2\C=Cc3cc(C)ccc3N2CC)ccc2ccccc21,-12.9%,"0.13 µM [rising, full curve, poor fit]",–
O=C(COc1cc(O)c2c(=O)cc(-c3ccccc3)oc2c1)c1ccc(F)cc1,-21.9%,"4.11 µM [falling, full curve]",–
O=C(c1ccco1)N1CCN(S(=O)(=O)c2ccc(S(=O)(=O)NC3CCCC3)cc2)CC1,–,–,"6.51 µM [rising, single point]"
O=C(Cn1ncc2c([nH]c3ccccc32)c1=O)N1CCc2ccccc2C1,19.1%,"29.1 µM [rising, single point]",–
CC1(C)CC(=O)C2=C(C1)c1c(ccc3ccccc13)NC2c1ccco1 (stereo not given),-12.2%,"16.4 µM [rising, partial curve]",–
COc1ccccc1S(=O)(=O)NCc1ccc(C(=O)N(C)Cc2ccc(F)cc2)cc1,2.6%,–,"6.51 µM [falling, single point]"

# One compound at a time, from the list above. Order of values: cell number change	AC50 [1]	AC50 [2]
# `CC1(C)CC(=O)C2=C(C1)c1c(ccc3ccccc13)NC2c1ccco1` (stereo not given) in the list: -12.2%	16.4 µM [rising, partial curve]	–
# `COc1ccccc1S(=O)(=O)NCc1ccc(C(=O)N(C)Cc2ccc(F)cc2)cc1` in the list: 2.6%	–	6.51 µM [falling, single point]
# `Cn1c(CN2CCOCC2)nc2cc(NC(=O)c3ccccc3Cl)ccc21` in the list: 88%	0.58 µM [falling, single point]	23.1 µM [rising, partial curve]
# `CC1CCCCN1S(=O)(=O)c1cnc(Cl)c(Br)c1` (stereo not given) in the list: -8.57%	29.1 µM [falling, single point]	–

# (listing goes on)

Compound,cell number change,AC50 [1],AC50 [2]
O=C(CSc1cccc[n+]1[O-])Nc1cc(S(=O)(=O)N2CCOCC2)ccc1N1CCOCC1,17.7%,–,–
COc1ccc(-n2c(=S)[nH]c3cc(C(=O)Nc4cc(C(N)=O)ccc4OC)ccc3c2=O)c(OC)c1,77.8%,"8.2 µM [rising, partial curve]","18.4 µM [rising, partial curve]"
Cc1ccsc1C(=O)NCc1ccc(F)cc1,-4.78%,"6.51 µM [falling, single point]",–
COc1ccccc1CNc1cc(C)ccn1,27.9%,"0.58 µM [rising, single point]",–
O=C1CN(c2nc(-c3ccccc3)c3cc(Br)ccc3n2)c2ccccc2N1,–,–,"2.31 µM [rising, single point]"
CCOC(=O)c1ccccc1NC(=O)COC(=O)CC1CCCCC1,34.1%,"25.9 µM [rising, partial curve]","11.6 µM [rising, partial curve, poor fit]"
COc1cc(C(=O)NCc2cn3cccc(C)c3n2)cc(OC)c1OC,72%,"29.1 µM [rising, single point]","20.6 µM [rising, single point]"
CN1CCN(C2CCCCC2NS(=O)(=O)c2ccccc2)CC1 (stereo not given),-2.36%,"1.3 µM [falling, full curve]",–
CC1CCc2c(sc3nn[nH]c(=O)c23)C1 (stereo not given),-22.8%,"0.116 µM [falling, full curve, poor fit]",–
O=C(Nc1ccc(S(=O)(=O)N2CCCC2)cc1)c1cc(F)c(F)cc1Cl,-14.7%,"0.116 µM [falling, full curve, poor fit]",–
Cc1ccc(C)c(NC(=O)COC(=O)CNC(=O)C2CCCCC2)c1,12.1%,"0.82 µM [rising, full curve]",–
O=C(CCSc1nccn1Cc1ccccc1)N1CCOCC1,-78.8%,"0.259 µM [falling, full curve, poor fit]","25.9 µM [falling, partial curve, poor fit]"
Cc1cccc(OCC(=O)N(Cc2ccco2)C2CCS(=O)(=O)C2)c1C (stereo not given),12.4%,"10.3 µM [rising, partial curve, poor fit]",–
NC(=O)NC(=O)COC(=O)CC12CC3CC(CC(C3)C1)C2,-12%,"6.51 µM [rising, partial curve]",–
COc1ccc(F)cc1C1=CC(=O)C[C@H](c2ccc3c(c2)OCO3)C1,4.59%,–,–
CCOc1ccc(NC(=O)Nc2cccc(C)n2)cc1,-30.6%,–,"29.1 µM [falling, single point]"
Cc1ccccc1OCCSc1nc2ccccc2n1CCC(=O)O,-12.9%,–,–
Nc1cc[n+](CC(=O)c2ccc3c(c2)OCCO3)cc1,-22.4%,–,–
O=C(NNC(=O)c1cccnc1SCc1cccc([N+](=O)[O-])c1)c1ccccn1,-8.57%,"32.6 µM [falling, single point]",–
